PubChem BioAssay AID1508597 – Cure First – 2020
Shown is a random part of the about 2,100 reagents, in one setting of the screen. 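Calls flag viability under 80% in either arm, not effects specific to rucaparib; the reference for percent is not stated.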 Entries without a mark were called inactive. The record does not give: the 100% reference.

- Test: 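Genes whose silencing sensitises or protects ovarian cancer cells against rucaparib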 (primary screen)
- System: human ovarian carcinoma lines grown from tumours: OCI-P5x (papillary serous) and OCI-C5x (clear cell)
- Reagent: siRNA pool against human genes, 1.25 pmol siRNA per well
- Timing: 72 h or 96 h, depending on the cell culture
- Conditions: rucaparib 20 µM (about IC30) or vehicle, present until read-out
- Rucaparib or vehicle: Rucaparib
- Cell line: OCI-C5x (clear cell)
- Detection: 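Luminescent ATP-based viability assay read 72 or 96 h after transfection, depending on culture, given as normalised percent viability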
- Scale: viability, normalised: higher = more viable cells remaining
- Hit rule: 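Active when normalised viability falls below 80 percent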
- Calls: active = viability under 80%; inactive = viability 80% or more

| gene knocked down | technical replicate | viability, normalised (%) |
| --- | --- | --- |
| TBP | 1 | 55.1 (active) |
| TBP | 2 | 59.5 (active) |
| TBP | 3 | 53.5 (active) |
| IL10 | 1 | 94.7 |
| IL10 | 2 | 77.3 (active) |
| IL10 | 3 | 67.9 (active) |
| CLDN3 | 1 | 43.6 (active) |
| CLDN3 | 2 | 45.1 (active) |
| CLDN3 | 3 | 46.3 (active) |
| STK32B | 1 | 44.1 (active) |
| STK32B | 2 | 48.8 (active) |
| STK32B | 3 | 56.2 (active) |
| KHK | 1 | 51 (active) |
| KHK | 2 | 42.5 (active) |
| KHK | 3 | 32.2 (active) |
| EPC2 | 1 | 76.6 (active) |
| EPC2 | 2 | 56.1 (active) |
| EPC2 | 3 | 60.5 (active) |
| MSL3 | 1 | 47.7 (active) |
| MSL3 | 2 | 48.4 (active) |
| MSL3 | 3 | 45.9 (active) |
| WNK2 | 1 | 61.3 (active) |
| WNK2 | 2 | 64.3 (active) |
| WNK2 | 3 | 65.8 (active) |
| TEX14 | 1 | 43.3 (active) |
| TEX14 | 2 | 50.9 (active) |
| TEX14 | 3 | 61.1 (active) |
| PARP15 | 1 | 14.4 (active) |
| PARP15 | 2 | 13.7 (active) |
| PARP15 | 3 | 21.2 (active) |
| SPHK2 | 1 | 46.7 (active) |
| SPHK2 | 2 | 38 (active) |
| SPHK2 | 3 | 33.4 (active) |
| SPTB | 1 | 67.7 (active) |
| SPTB | 2 | 49.9 (active) |
| SPTB | 3 | 71.7 (active) |
| GRB10 | 1 | 46.4 (active) |
| GRB10 | 2 | 54.2 (active) |
| GRB10 | 3 | 67.1 (active) |
| TRDMT1 | 1 | 63.5 (active) |
| TRDMT1 | 2 | 64.3 (active) |
| TRDMT1 | 3 | 43.9 (active) |
| HDAC8 | 1 | 74.3 (active) |
| HDAC8 | 2 | 55 (active) |
| HDAC8 | 3 | 59.9 (active) |
| PCK1 | 1 | 59.5 (active) |
| PCK1 | 2 | 40 (active) |
| PCK1 | 3 | 60.8 (active) |
| PTTG3P | 1 | 61.8 (active) |
| PTTG3P | 2 | 53.5 (active) |
| PTTG3P | 3 | 51.4 (active) |
| SFN | 1 | 52.2 (active) |
| SFN | 2 | 38.8 (active) |
| SFN | 3 | 42.2 (active) |
| KAT8 | 1 | 42.4 (active) |
| KAT8 | 2 | 50.8 (active) |
| KAT8 | 3 | 49.1 (active) |

Laid out differently: 3 of the entries above
gene knocked down,technical replicate,"viability, normalised (%)"
IL10,1,94.7
IL10,2,77.3 (active)
IL10,3,67.9 (active)
